# Data published in paper PMC8913318 (The Journal of Biological Chemistry, 2022).
# Entries after “also recorded” stand apart in the source; their conditions may differ.
# Target: T1, CYP168A1 (Pseudomonas aeruginosa, UniProt Q9I107)
# T1 sequence (Q9I107 1-444): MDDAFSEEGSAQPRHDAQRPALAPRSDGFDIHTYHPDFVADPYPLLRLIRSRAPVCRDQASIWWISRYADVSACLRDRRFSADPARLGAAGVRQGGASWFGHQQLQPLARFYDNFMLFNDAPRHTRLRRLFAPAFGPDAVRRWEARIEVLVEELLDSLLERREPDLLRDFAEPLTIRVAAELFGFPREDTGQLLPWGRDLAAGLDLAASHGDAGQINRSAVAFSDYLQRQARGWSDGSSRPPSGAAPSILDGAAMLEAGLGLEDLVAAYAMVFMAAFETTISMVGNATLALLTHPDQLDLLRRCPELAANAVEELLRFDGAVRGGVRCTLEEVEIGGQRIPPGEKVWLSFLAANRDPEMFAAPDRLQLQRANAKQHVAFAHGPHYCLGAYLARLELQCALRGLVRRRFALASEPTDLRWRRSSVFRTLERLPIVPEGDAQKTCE
# Assay: Ligand Kd determination by optical difference spectroscopy
# Assay type: binding
# Settings: UV-visible titration of CYP168A1
smiles,measurement,value
O=C(O)c1cn(C2CC2)c2cc(N3CCNCC3)c(F)cc2c1=O [ciprofloxacin],Spectral shift of the Soret band (difference spectrum type),no spectral changes; also recorded: did not exert any changes
